Measurements reported in PubChem BioAssay AID1259308 (NCATS, 2017)

Test: 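Genes whose loss raises luciferase production in HEK293 cells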 (primary screen)
System: human HEK293 embryonic kidney cells stably expressing firefly luciferase (HEK-CMV-Luc2-Hygro)
Reagent: single siRNA against human genes, 0.8 pmol siRNA per well
Timing: 72 h
Measurement: 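Reporter luminescence and viable-cell signal on separate replicate plates, given as percent of non-targeting control and median/MAD z-scores, plus per-cell luciferase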
Scale: total luciferase, z-score and total luciferase, % of control: higher = more reporter protein produced
Call rule: 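Active when the median/MAD z-score for overall luciferase is greater than 3; a gene was taken forward for validation with new siRNAs if at least two of its three siRNAs passed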
Calls: active = raised luciferase; inactive = no rise
Here is one part, drawn at random, of about 59,000 reagents. Of all reagents, about 1,510 (2.6%) got an active call. 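Calls use total luciferase alone and ignore viability, so some active siRNAs may act by altering cell number.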 Unmarked entries are inactive. The numbers tell different reagents against one gene apart. Not all columns of the deposit are shown.

Depletion of PCGF3 #1 resulted in: total luciferase, z-score -0.821; total luciferase, % of control 65.6.
With knock-down of PCGF3 #2, the record shows total luciferase, z-score 0.339; total luciferase, % of control 88.6.
With knock-down of PCGF3 #3 the results were total luciferase, z-score 0.385; total luciferase, % of control 89.5.
Depletion of MCRIP1 #1 resulted in: total luciferase, z-score -0.159; total luciferase, % of control 78.7.
After knock-down of MCRIP1 #2 the results were total luciferase, z-score -0.989; total luciferase, % of control 62.2.
MCRIP1 #3 gave total luciferase, z-score 3.97 (active); total luciferase, % of control 161.
For COMMD8 #1 the deposit lists total luciferase, z-score -3.14; total luciferase, % of control 19.5.
With knock-down of COMMD8 #2, the record shows total luciferase, z-score 0.298; total luciferase, % of control 87.8.
Depletion of COMMD8 #3 resulted in: total luciferase, z-score -0.0565; total luciferase, % of control 80.8.
TRIM55 #1 scored total luciferase, z-score -1.15; total luciferase, % of control 59.1.
TRIM55 #2 scored total luciferase, z-score -0.484; total luciferase, % of control 72.3.
With knock-down of TRIM55 #3, the record shows total luciferase, z-score 3.34 (active); total luciferase, % of control 148.
Knock-down of LIF #1 gave: total luciferase, z-score -1.9; total luciferase, % of control 44.2.
With knock-down of LIF #2, the screen gave total luciferase, z-score 1.35; total luciferase, % of control 109.
Depletion of LIF #3 gave: total luciferase, z-score -0.0245; total luciferase, % of control 81.4.
After knock-down of MYL5 #1 the results were total luciferase, z-score 0.818; total luciferase, % of control 98.2.
Silencing of MYL5 #2 came out at: total luciferase, z-score -0.433; total luciferase, % of control 73.3.
MYL5 #3 showed total luciferase, z-score -0.548; total luciferase, % of control 71.
ACTR2 #1 showed total luciferase, z-score -0.273; total luciferase, % of control 76.4.
Against ACTR2 #2, the values are total luciferase, z-score 0.258; total luciferase, % of control 87.
For ACTR2 #3, the entry reads total luciferase, z-score 0.467; total luciferase, % of control 91.2.
Knock-down of EIF2AK2 #1 came out at: total luciferase, z-score -0.502; total luciferase, % of control 71.9.
After knock-down of EIF2AK2 #2, the screen gave total luciferase, z-score -0.557; total luciferase, % of control 70.8.
Knock-down of EIF2AK2 #3 resulted in: total luciferase, z-score -0.612; total luciferase, % of control 69.7.
Depletion of CSNK1G3 #1 gave: total luciferase, z-score 0.0583; total luciferase, % of control 83.
After knock-down of CSNK1G3 #2, the record shows total luciferase, z-score 0.368; total luciferase, % of control 89.2.
Depletion of CSNK1G3 #3 came out at: total luciferase, z-score 0.13; total luciferase, % of control 84.5.
AHCYL2 #1 scored total luciferase, z-score 0.368; total luciferase, % of control 89.2.
Against AHCYL2 #2, the entry reads total luciferase, z-score 1.28; total luciferase, % of control 107.
After knock-down of AHCYL2 #3, the screen gave total luciferase, z-score -2.41; total luciferase, % of control 34.
Silencing of C9orf57 #1 came out at: total luciferase, z-score 0.608; total luciferase, % of control 94.
C9orf57 #2 showed total luciferase, z-score 0.55; total luciferase, % of control 92.8.
Against C9orf57 #3, the values are total luciferase, z-score -0.1; total luciferase, % of control 79.9.

Entries above whose gene name begins with L or l:
LIF #1 → total luciferase, z-score = -1.9; total luciferase, % of control = 44.2
LIF #2 → total luciferase, z-score = 1.35; total luciferase, % of control = 109
LIF #3 → total luciferase, z-score = -0.0245; total luciferase, % of control = 81.4
